Measurements from patent US20090305971A1 (YALE UNIVERSITY, published 2009).
These are yes or no findings as the source states them, for the method shown.

Assays:
[1] = biological target: T1, human Nogo-B receptor (NgBR), expressed from the cloned cDNA on transfected COS-7 or CHO cells (human) (UniProt Q96E22); test: surface binding of AP proteins to CHO cells expressing NgBR (FIG. 14)
T1 sequence: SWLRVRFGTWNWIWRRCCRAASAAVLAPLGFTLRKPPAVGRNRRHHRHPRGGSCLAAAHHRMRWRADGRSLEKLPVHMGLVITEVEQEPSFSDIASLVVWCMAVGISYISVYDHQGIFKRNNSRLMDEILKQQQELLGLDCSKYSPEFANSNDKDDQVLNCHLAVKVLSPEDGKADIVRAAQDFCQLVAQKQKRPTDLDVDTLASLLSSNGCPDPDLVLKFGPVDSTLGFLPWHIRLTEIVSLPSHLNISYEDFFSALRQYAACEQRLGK

[2] = biological target: T2, Nogo-B receptor (NgBR), endogenous, on human umbilical vein endothelial cells (HUVEC) (human) (UniProt Q96E22); test: surface binding of AP proteins to HUVEC (FIG. 15)
T2 sequence: T1 sequence

binding [1]: no binding
binding [2]: no binding
Substance: AP-Nogo-A (544-725) (ligand)
